Results as given in PubChem BioAssay AID504444 (National Center for Advancing Translational Sciences (NCATS), 2011).
Several values for one entry are separate records, joined by “and”; a condition that tells them apart may be missing. Equal entries are not always repeated. The campaign covered roughly 360,000 compounds. About 7,500 (2.1%) were called active. The shares of active, inactive and inconclusive entries below differ from those in the screen. Calls follow the shape of the dose curve; as a rule, active = well fitted inhibition curve with a large enough effect; inconclusive = small, poorly fitted or top-dose-only effect, or effect the other way; inactive = flat fitted curve, though single readings scatter. Where the call is inconclusive, the potency comes from a doubtful curve fit.

Assay: Nrf2 qHTS screen for inhibitors; also: nearly all actives have a fitted effect of over 60% in size
Conditions: A549 ARE-Fluc reporter, luciferase luminescence, 18-24 h; activity change, negative = inhibition: at 46 µM (top of the series)
Procedure, shortened: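 Nrf2 function is reported as luminescence of an ARE-controlled luciferase in A549 cells. Compounds were tested at several concentrations, and a CellTiter-Fluor read on the same wells flagged cytotoxicity.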
% is scaled to controls: 0 for no effect and ±100 for the full control effect; potency is read from the fitted curve at half-maximal effect.

Compound | Potency | activity change, negative = inhibition
Cc1ccc(NC(=O)c2nc[nH]c2C(=O)NCCN(CCNC(=O)c2[nH]cnc2C(=O)Nc2ccc(C)cc2)CCNC(=O)c2[nH]cnc2C(=O)Nc2ccc(C)cc2)cc1 | inconclusive: 29.1 µM [falling, single point] | 
COc1ccc2cc1Oc1ccc(cc1)CC1c3c(cc(OC)c4c3Oc3cc5c(cc3O4)CCNC5C2)CCN1C (stereo not given) | inconclusive: 29.1 µM [falling, single point] | 
CCOc1cc(S(=O)(=O)N2CC=C(c3ccc(F)cc3)CC2)c(OCC)cc1-n1cnnn1 | inconclusive: 1.46 µM [falling, partial curve, poor fit] | 
COc1cc2cccc(OC)c(=O)c2c(O)c1OC | inconclusive: 23.1 µM [activator, single point] | 
CCc1ccc(NC(=O)c2ccc3c(=O)n4c(nc3c2)CCCCC4)cc1 | inconclusive: 20.6 µM [falling, single point] | 
CCCCCC(=O)Nc1ccc(Cc2ccncc2)cc1 | inconclusive: 20.6 µM [falling, single point] | 
Cc1nc2ccccn2c1C(=O)NNS(=O)(=O)c1ccc(C(C)(C)C)cc1 | active: 9.2 µM | 
Cc1nnnn1/C(=C\c1ccccc1)C(=O)OCC(=O)N(C)C1CCS(=O)(=O)C1 (stereo not given) |  | inactive: -12.9%
Clc1ccc2nc(CSCc3ccccc3)cn2c1 | inconclusive: 18.4 µM [activator, partial curve] | 
CCCn1c2ccccc2c2cnn(CC(=O)N(Cc3ccccc3)C(C)C)c(=O)c21 |  | inactive: 19.5%
Cc1nnc(N/N=C/c2ccc(-c3ccccc3F)o2)n1N | inconclusive: 20.6 µM [activator, partial curve] | 
CCCOc1ccc(-c2nc(N3CCC(C)CC3)c3ccccc3n2)cc1 |  | inactive: 4.91%
O=S1(=O)N=C(N(CCO)/N=C/c2ccc(Cl)cc2)c2ccccc21 | inconclusive: 4.61 µM [falling, partial curve, poor fit] | 
COc1ccccc1N(C)S(=O)(=O)c1ccc(C(=O)Nc2nc(C)cs2)cc1 | inconclusive: 23.1 µM [falling, single point] | 
Cc1ccc(F)cc1NC(=O)N1CCN(c2ccnc3cc(Cl)ccc23)CC1 | active: 9.2 µM | 
CC(=O)NC12CC3CC(C1)CC(C(=O)N1CCN(S(=O)(=O)c4ccccc4[N+](=O)[O-])CC1)(C3)C2 | inconclusive: 18.4 µM [falling, partial curve, poor fit] | 
O=C(O)c1ccccc1N=Cc1c(O)n(-c2nccs2)c(=O)c2ccccc12 |  | inactive: 1.17%
CCCC(=O)N1CCc2cc(OC)c(OC)cc2C1c1cc2cc3c(cc2[nH]c1=O)OCO3 (stereo not given) |  | inactive: -2.29%
CC(C)(C)OC(=O)NCc1ccc(CNC(=O)c2[nH]cnc2C(=O)NC2CCN(C(=O)OC(C)(C)C)CC2)cc1 | inconclusive: 23.1 µM [falling, single point] | 
O=C(CCSc1ccc(F)cc1)NNC(=O)c1ccc([N+](=O)[O-])cc1 |  | inactive: -4.39%
O=S(=O)(CCc1nc2ccccc2[nH]1)c1ccc(Br)cc1 | inconclusive: 23.1 µM [falling, partial curve, poor fit] | 
N#CNC(=Nc1cccc(F)c1)SCc1ccccc1F | inconclusive: 13 µM [falling, partial curve, poor fit] | 

Compound | Potency | activity change, negative = inhibition
O=C(COC(=O)/C=C/c1ccc(C(F)(F)F)cc1)Nc1ccc2[nH]c(=O)[nH]c2c1 |  | inactive: 1.61%
CCCCOc1ccc(S(=O)(=O)NCc2csc(-c3ccc(OC)cc3)n2)cc1 |  | inactive: -7.86%
Cc1ccc(Oc2cc(NN3CCCCC3)c([N+](=O)[O-])cc2[N+](=O)[O-])c(Cl)c1 |  | inactive: -3.99%
C/C=C/C(=O)Nc1ccccc1Br | inconclusive: 4.11 µM [falling, partial curve, poor fit] | 
COc1ccc(-c2noc(N3CCC(C(=O)N(C)c4cc(Cl)ccc4OC)CC3)n2)cc1 |  | inactive: 9.65%
COC(=O)c1ccc(C)c(NC(=O)CN(c2cc(OC)ccc2OC)S(C)(=O)=O)c1 | inconclusive: 3.26 µM [activator, full curve] | 
COC(=O)N/N=C\C=C\c1ccc2c(c1)OCO2 | inconclusive: 1.64 µM [activator, full curve] | 
Cc1ccc2c(CN3CCC(C)CC3)cc(=O)oc2c1 | inconclusive: 6.51 µM [activator, partial curve] | 
Brc1ccc(-c2nnc3ccc(N4CCN(c5ccccc5)CC4)nn23)cc1 | inconclusive: 0.731 µM [falling, full curve] | 
Cc1ccc2nc(CSc3nnc(-c4ccco4)n3-c3ccccc3)cc(=O)n2c1 | inconclusive: 1.84 µM [falling, partial curve, poor fit] | 
COc1ccc(CCNC(=O)CCc2cn(Cc3ccc(C)cc3)c3ccccc23)c(OC)c1OC | inconclusive: 18.4 µM [falling, single point] | 
Cc1ccc(-c2noc(C3CCCN(C(=O)c4cccc([N+](=O)[O-])c4)C3)n2)o1 (stereo not given) | inconclusive: 11.6 µM [activator, partial curve] | 
CCOC(=O)c1cccc(NC(=O)C2CCCN(S(=O)(=O)c3c(C)nn(C)c3C)C2)c1 (stereo not given) | inconclusive: 29.1 µM [falling, single point] | 
CCCc1cc(C(=O)NC2CCCCC2)no1 | inconclusive: 4.61 µM [activator, full curve] | 
Cc1ccc(-n2c(C)cc(C(=O)COC(=O)c3ccc[nH]c3=O)c2C)cc1 | inconclusive: 16.4 µM [falling, single point] | 
COc1ccc2c(CNCCc3cccs3)c(C(=O)O)n(Cc3ccccc3C)c2c1 |  | inactive: -0.0696%
CCOc1ccc(/C=N/NC(=O)CN2CCCCCCC2)cc1 | inconclusive: 25.9 µM [activator, single point] | 
Cc1cccc(N2CCN(C(=O)C3CCN(S(=O)(=O)c4c(C)noc4C)CC3)CC2)c1C | inconclusive: 10.3 µM [falling, partial curve] and inconclusive: 13 µM [falling, partial curve] | 
COc1ccc(C2CC(c3ccc(C(F)(F)F)cc3)=NN2c2ccc(S(N)(=O)=O)cc2)cc1 (stereo not given) | inconclusive: 20.6 µM [falling, partial curve, poor fit] | 
CCc1nnc(NC(=O)c2ccc(-c3ccc(C(C)=O)cc3)o2)s1 |  | inactive: -20.1%
COc1cc(C(=O)Nc2nnc(-c3sccc3C)s2)cc(OC)c1OC | inconclusive: 29.1 µM [falling, single point] | 
N#Cc1c(/N=C/c2ccco2)sc2c1CCCCC2 | inconclusive: 8.2 µM [activator, partial curve] | 

Compound | Potency | activity change, negative = inhibition
Cc1ccc2oc(C(=O)Nc3cccc(-c4nc5ccccc5s4)c3)c(C)c2c1 | inconclusive: 10.3 µM [activator, partial curve, poor fit] | 
Cc1ccc(Nc2ncc(C(=O)N3CCN(c4cccc(Cl)c4)CC3)c3ccccc23)cc1Cl | inconclusive: 5.17 µM [activator, partial curve] | 
COc1ccc2c(c1)C1=NN(/C(C)=C/C(C)=O)C(c3cccc(F)c3)C1CC2 (stereo not given) |  | inactive: 27.9%
C=C1C(C(=O)Nc2ccc(F)cc2)C1C(=O)Nc1ccc(F)cc1 (stereo not given) | inconclusive: 14.6 µM [falling, partial curve, poor fit] | 
COc1ccc(COc2cccc(C=O)c2)cc1 | inconclusive: 2.06 µM [activator, full curve] | 
COC(=O)CCCN1C(=O)c2cccc3cccc(c23)C1=O |  | inactive: 0.712%
CCOC(=O)c1c(N2C(=O)C=CC2=O)sc(C)c1C | inconclusive: 29.1 µM [falling, single point] | 
N/C(=N\OC(=O)C1CCCCC1)c1cccc([N+](=O)[O-])c1 | inconclusive: 29.1 µM [activator, single point] | 
COc1ccc(N2CCN(c3nc(-c4cccs4)nc4ccccc34)CC2)cc1 | inconclusive: 13 µM [falling, partial curve, poor fit] | 
CC(C)(C)c1cc(C(=O)N/N=C/c2ccc(O)cc2)n(-c2ccccc2)n1 | inconclusive: 29.1 µM [falling, single point] | 
Cc1c(C(=O)N2CCCC2)oc2c1-c1nn(CC(=O)NC(C)c3ccccc3)cc1CC2 (stereo not given) | active: 18.4 µM | 
Cn1c(=O)c2c(ncn2CC(=O)OCC(=O)c2ccc(F)c(F)c2)n(C)c1=O | inconclusive: 32.6 µM [activator, single point] | 
O=C(NC(=S)Nc1ccccc1C(=O)O)c1ccc(-c2ccc(Br)cc2)o1 | inconclusive: 2.91 µM [activator, single point] | 
Cc1ccc(C(=O)Nc2ccc3ccccc3n2)cc1 | inconclusive: 4.61 µM [activator, partial curve] | 
COc1ccc2c(-c3ccccc3)cc(SC(C)C(N)=O)nc2c1 (stereo not given) | inconclusive: 16.4 µM [activator, partial curve, poor fit] | 
Cc1cnn(-c2cc(N/N=C/c3ccccc3F)ncn2)c1 | inconclusive: 10.3 µM [activator, partial curve, poor fit] | 
CCSc1nc2sc3c(c2c(=O)n1-c1ccccc1)CCN(C)C3 | inconclusive: 29.1 µM [falling, partial curve, poor fit] | 
N#Cc1c(/N=C/c2cccs2)sc2c1CCC2 | inconclusive: 13 µM [activator, partial curve] | 
COc1ccc(CCN2CC(C(=O)NCCc3cnn(C)c3)CCC2=O)cc1 (stereo not given) |  | inactive: -3.31%
COc1ccccc1C(=O)NNC(=O)c1ccc(Br)cc1 |  | inactive: 23.2%
O=C(/C=C/c1ccccc1)Nc1cccnc1Oc1ccccc1F | inconclusive: 20.6 µM [activator, partial curve] | 

Single entries from above:
N/C(=N\OC(=O)C1CCCCC1)c1cccc([N+](=O)[O-])c1 | Potency: inconclusive: 29.1 µM [activator, single point]
COc1ccc2c(c1)C1=NN(/C(C)=C/C(C)=O)C(c3cccc(F)c3)C1CC2 (stereo not given) | activity change, negative = inhibition: inactive: 27.9%
O=C(/C=C/c1ccccc1)Nc1cccnc1Oc1ccccc1F | Potency: inconclusive: 20.6 µM [activator, partial curve]
Cc1ccc(Nc2ncc(C(=O)N3CCN(c4cccc(Cl)c4)CC3)c3ccccc23)cc1Cl | Potency: inconclusive: 5.17 µM [activator, partial curve]
Cc1cnn(-c2cc(N/N=C/c3ccccc3F)ncn2)c1 | Potency: inconclusive: 10.3 µM [activator, partial curve, poor fit]
COc1ccc2c(-c3ccccc3)cc(SC(C)C(N)=O)nc2c1 (stereo not given) | Potency: inconclusive: 16.4 µM [activator, partial curve, poor fit]
